Results: article doi:10.1101/495762 (bioRxiv, 2018)
Substitutions are numbered along the chain they refer to. Names may count otherwise. No constants are given. Whether binding was seen depends on the method and setting. In cells and extracts the contact can be indirect. Some entries that bind do so weakly or less than the wild type. Sequences can lack the tags named with a protein.

T1: Smc3(K198C, E1155Q)-HaloTag (S. cerevisiae) (UniProt P47037)
T1 sequence: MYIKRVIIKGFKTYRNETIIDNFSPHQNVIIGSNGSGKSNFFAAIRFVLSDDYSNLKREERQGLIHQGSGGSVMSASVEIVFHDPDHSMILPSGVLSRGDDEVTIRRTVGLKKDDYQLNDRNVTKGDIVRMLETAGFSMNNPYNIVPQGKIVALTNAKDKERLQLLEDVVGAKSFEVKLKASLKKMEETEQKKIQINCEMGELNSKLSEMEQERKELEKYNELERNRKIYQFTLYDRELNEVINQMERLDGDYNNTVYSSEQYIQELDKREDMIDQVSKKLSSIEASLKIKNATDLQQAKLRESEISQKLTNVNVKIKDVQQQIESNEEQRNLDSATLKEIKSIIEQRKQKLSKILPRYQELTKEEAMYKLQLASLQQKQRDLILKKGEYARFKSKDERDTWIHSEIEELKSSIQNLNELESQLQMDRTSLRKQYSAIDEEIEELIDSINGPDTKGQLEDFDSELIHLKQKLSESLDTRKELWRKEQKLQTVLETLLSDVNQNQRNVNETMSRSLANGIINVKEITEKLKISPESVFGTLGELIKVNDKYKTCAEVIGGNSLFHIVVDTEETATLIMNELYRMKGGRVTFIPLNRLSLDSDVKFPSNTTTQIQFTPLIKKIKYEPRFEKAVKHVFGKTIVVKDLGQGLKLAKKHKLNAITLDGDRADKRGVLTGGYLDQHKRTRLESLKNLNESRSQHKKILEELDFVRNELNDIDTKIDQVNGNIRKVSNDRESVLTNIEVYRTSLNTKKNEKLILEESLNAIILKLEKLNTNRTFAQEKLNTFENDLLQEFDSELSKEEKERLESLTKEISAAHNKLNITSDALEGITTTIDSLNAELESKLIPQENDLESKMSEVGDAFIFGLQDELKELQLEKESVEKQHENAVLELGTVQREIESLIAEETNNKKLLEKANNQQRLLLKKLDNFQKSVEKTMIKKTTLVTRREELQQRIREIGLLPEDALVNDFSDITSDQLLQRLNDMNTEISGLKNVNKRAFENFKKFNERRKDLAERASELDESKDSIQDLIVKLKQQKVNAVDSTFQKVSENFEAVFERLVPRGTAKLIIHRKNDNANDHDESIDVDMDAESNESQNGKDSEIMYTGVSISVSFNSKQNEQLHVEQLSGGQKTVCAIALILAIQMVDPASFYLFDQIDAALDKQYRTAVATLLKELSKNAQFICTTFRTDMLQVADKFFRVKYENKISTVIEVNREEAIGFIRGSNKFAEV

T2: Smc3(E570C, S1127R)-HaloTag (S. cerevisiae) (UniProt P47037)
T2 sequence: T1 sequence with C198K, E570C, S1127R, Q1155E

B1: Smc1(K201C) (protein, UniProt P32908 1-1225)
chain: MGRLVGLELSNFKSYRGVTKVGFGESNFTSIIGPNGSGKSNMMDAISFVLGVRSNHLRSNILKDLIYRGVLNDENSDDYDNEGAASSNPQSAYVKAFYQKGNKLVELMRIISRNGDTSYKIDGKTVSYKDYSIFLENENILIKAKNFLVFQGDVEQIAAQSPVELSRMFEEVSGSIQYKKEYEELKEKIEKLSKSATESICNRRRIHGELKTYKEGINKNEEYRKQLDKKNELQKFQALWQLYHLEQQKEELTDKLSALNSEISSLKGKINNEMKSLQRSKSSFVKESAVISKQKSKLDYIFKDKEKLVSDLRLIKVPQQAAGKRISHIEKRIESLQKDLQRQKTYVERFETQLKVVTRSKEAFEEEIKQSARNYDKFKLNENDLKTYNCLHEKYLTEGGSILEEKIAVLNNDKREIQEELERFNKRADISKRRITEELSITGEKLDTQLNDLRVSLNEKNALHTERLHELKKLQSDIESANNQEYDLNFKLRETLVKIDDLSANQRETMKERKLRENIAMLKRFFPGVKGLVHDLCHPKKEKYGLAVSTILGKNFDSVIVENLTVAQECIAFLKKQRAGTASFIPLDTIETELPTLSLPDSQDYILSINAIDYEPEYEKAMQYVCGDSIICNTLNIAKDLKWKKGIRGKLVTIEGALIHKAGLMTGGISGDANNRWDKEEYQSLMSLKDKLLIQIDELSNGQRSNSIRAREVENSVSLLNSDIANLRTQVTQQKRSLDENRLEIKYHNDLIEKEIQPKITELKKKLDDLENTKDNLVKEKEALQNNIFKEFTSKIGFTIKEYENHSGELMRQQSKELQQLQKQILTVENKLQFETDRLSTTQRRYEKAQKDLENAQVEMKSLEEQEYAIEMKIGSIESKLEEHKNHLDELQKKFVTKQSELNSSEDILEDMNSNLQVLKRERDGIKEDIEKFDLERVTALKNCKISNINIPISSETTIDDLPISSTDNEAITISNSIDINYKGLPKKYKENNTDSARKELEQKIHEVEEILNELQPNARALERYDEAEGRFEVINNETEQLKAEEKKILNQFLKIKKKRKELFEKTFDYVSDHLDAIYRELTKNPNSNVELAGGNASLTIEDEDEPFNAGIKYHATPPLKRFKDMEYLSGGEKTVAALALLFAINSYQPSPFFVLDEVDAALDITNVQRIAAYIRRHRNPDLQFIVISLKNTMFEKSDALVGVYRQQQENSSKIITLDLSNYAE
B2: Smc1(K639C) (protein, UniProt P32908 1-1225)
chain: B1 chain with C201K, K639C

Columns and labels:
[1] = biological target: T1, Smc3(K198C, E1155Q)-HaloTag (S. cerevisiae); assay: cross-linking
[2] = biological target: T2, Smc3(E570C, S1127R)-HaloTag (S. cerevisiae); assay: cross-linking

| Binder | binding [1] | binding [2] |
| --- | --- | --- |
| B1 | binds |  |
| B2 |  | binds |
